Measured values as given in US10253255B2, “Phosphorescent nanoparticles and their uses in biosensing and bioimaging” (University of North Texas, priority 2015, dated 2019).

Experiment: Photoluminescence quantum yield
Type: physicochemical

For Na8[Au(TPPTS)3] [AuP], the “relative photoluminescence quantum yield (RQY)” value (aqueous, vs. quinine sulfate) was 4%.
In the case of M4[Pt2(P2O5H2)4].2H2O [Pt—POP], the phosphorescence quantum yield (deaerated (oxygen-free) aqueous solutions) is reported as > 70%.
